Data from PubChem BioAssay AID2685 (National Center for Advancing Translational Sciences (NCATS), 2010).
This is one part of the list. Shown are side measurements of this screen, not its main read-out; they come without a call. Most of these compounds were active or inconclusive in the main read-out, so they are no random draw. Potencies come from curve fits of mixed quality, noted in brackets.

Experiment: qHTS Assay for Lipid Storage Modulators in Drosophila S3 Cells;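 as to cell number change: cells counted by Cell Tracker Red CMTPX staining in the red channel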
Conditions: BODIPY lipid droplet fluorescence, 18-24 h; for cell number change: measured here: cell count max response, cells fed with added oleic acid
In short: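 Drosophila S3 cells got compounds at several concentrations plus oleic acid (400 uM solution). Laser-scanning cytometry with 488 nm excitation read lipid droplets at 500-530 nm and cells at 575-640 nm. Percent activity was relative to 20 uM Triacsin C.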

[1] = measured here: lipid fluorescence (Fed channel) AC50, cells fed with added oleic acid
[2] = measured here: cell number channel AC50, cells fed with added oleic acid

Cc1cccc(NC(=O)c2ccc(-n3cncn3)c([N+](=O)[O-])c2)c1
AC50 [1]: 29.1 µM [rising, single point]

COc1ccc(S(=O)(=O)NCc2ccc(C(=O)N(C)Cc3ccco3)cc2)cc1
cell number change: 34%
AC50 [2]: 5.17 µM [rising, full curve]
AC50 [1]: 16.4 µM [rising, partial curve]

N#C/C(=C\c1ccc(-c2ccc(C(=O)O)cc2)o1)c1nc2ccccc2[nH]1
cell number change: 9.93%
AC50 [2]: 1.64 µM [falling, partial curve]
AC50 [1]: 0.651 µM [falling, single point]

Cc1ccc(C)c(Cn2ncc3ccccc32)c1
cell number change: 11.3%
AC50 [1]: 0.651 µM [rising, single point]

O=C(Nc1nc2ccccc2s1)C1CCN(S(=O)(=O)c2cc([N+](=O)[O-])ccc2Cl)CC1
cell number change: -33%
AC50 [2]: 0.0082 µM [falling, full curve, poor fit]

Cc1cc2c(c(=O)o1)C1O[C@](CCCCN3C(=O)c4ccccc4C3=O)(Cc3cc(C#N)ccc31)O2
cell number change: 6.98%
AC50 [1]: 5.31 µM [rising, single point]

Cc1ccc(NC(=O)NC2CC(=O)N(c3ccc4c(c3)OCCO4)C2)c(C)c1 (stereo unspecified)
AC50 [2]: 0.92 µM [rising, full curve, poor fit]

COc1ccccc1-c1nnc(SCC(=O)NC2CC2)n1C
cell number change: -24.4%
AC50 [2]: 0.58 µM [falling, full curve, poor fit]
AC50 [1]: 0.164 µM [falling, full curve, poor fit]

CCOC(=O)Cc1csc(NC(=O)CSc2nnc(Cc3csc(N)n3)n2C)n1
cell number change: -16.3%

CCOC(=O)N1CCN(CC(O)COc2cc(C)ccc2C(C)C)CC1 (stereo unspecified)
cell number change: -8.96%
AC50 [1]: 29.1 µM [rising, single point]

COCCNc1nc(-c2cc(C)c(C)cc2C)cs1
cell number change: 4.39%

COC(=O)c1ccc(NC(=O)Nc2ccc(OC)c(OC)c2)cc1
cell number change: 24.1%

O=C(O)CC1S/C(=N/N=C2CCCCC2)N(c2ccccc2)C1=O (stereo unspecified)
cell number change: -42.1%
AC50 [2]: 11.6 µM [falling, partial curve]

CCOC(=O)c1ccc(NC(=O)c2nc[nH]c2C(=O)N[C@@H](CC(C)C)C(=O)OCc2ccccc2)cc1
cell number change: -0.425%
AC50 [1]: 3.66 µM [falling, single point]

CCOc1cc(/C=C2/C(=O)N(c3ccccc3)N=C2C)ccc1OC(=O)c1ccco1
cell number change: -16.3%
AC50 [1]: 6.51 µM [rising, single point]

COc1ccc(OC)c(C(C(=O)NC2CCCCC2)N(C(=O)c2ccccn2)c2cccnc2)c1 (stereo unspecified)
cell number change: -6.09%

COc1ccc(/C=N/NC(=O)c2cc(-c3ccccc3)nc3ccccc23)cc1O
AC50 [1]: 29.1 µM [rising, single point]

Nc1cccc(-c2nc3ccc(N)cc3s2)c1
cell number change: -10.6%
AC50 [1]: 0.82 µM [rising, full curve, poor fit]

CCOc1ccc(CCNC(=O)c2ccc(CS(=O)Cc3ccc(Cl)cc3)o2)cc1 (stereo unspecified)
AC50 [1]: 3.66 µM [falling, single point]

Cc1cc(C(=O)NNC(=S)NC(C)c2ccccc2)c2ccccc2n1 (stereo unspecified)
cell number change: -17%
AC50 [1]: 29.1 µM [falling, single point]

Cc1ccc(-n2c(-c3ccccc3)c[n+]3c2CCc2ccccc2-3)c(C)c1
cell number change: -121%
AC50 [2]: 18.4 µM [falling, partial curve]
AC50 [1]: 20.6 µM [falling, partial curve]

CCn1c(SCc2ccc(C)cc2)nnc1-c1nn(-c2ccccc2)ccc1=O
cell number change: 33%
AC50 [2]: 0.411 µM [rising, full curve]
AC50 [1]: 1.3 µM [rising, full curve]

CCOC(=O)c1c(C)[nH]c(C)c1C(=O)COC(=O)[C@@H](NC(=O)c1ccccc1OCC)C(C)C
cell number change: 69.8%
AC50 [2]: 0.13 µM [rising, full curve, poor fit]
AC50 [1]: 14.6 µM [rising, partial curve]

CCN(CC)CCCn1c2c(c(SCC(=O)Nc3nccs3)nc1=O)CCC2
cell number change: -7.78%
AC50 [1]: 23.1 µM [falling, partial curve, poor fit]

OCCC1CN(Cc2cccs2)CCN1Cc1ccccc1 (stereo unspecified)
cell number change: 28.6%
AC50 [1]: 0.366 µM [rising, full curve, poor fit]

Clc1ccc(Cc2nn3c(Cn4nnc5ccccc54)nnc3s2)cc1
AC50 [2]: 2.31 µM [rising, partial curve]
AC50 [1]: 1.3 µM [rising, partial curve]

FC(F)(F)c1cc(-c2cccs2)nc(-n2cc(Br)cn2)n1
AC50 [1]: 14.6 µM [rising, partial curve]

COc1ccc(SC[C@H](Cc2ccccc2)N2CC[C@@H](C)CCC2=O)cc1
cell number change: 16.9%
AC50 [1]: 5.17 µM [falling, single point]

Clc1ccc(C=NC23CN4CN(CN(C4)C2)C3)cc1
cell number change: -12.3%

CN1C(=O)CSC1=NCC12CC3CC(CC(C3)C1)C2
cell number change: -7.2%
AC50 [2]: 6.51 µM [falling, single point]
AC50 [1]: 29.1 µM [falling, single point]

CN(Cc1ccccc1)C(=O)c1ccc(NC(=O)Cc2cccc(NC(=O)C3CCN(C(=O)C4CC4)CC3)c2)cc1
cell number change: -23.8%
AC50 [2]: 0.00517 µM [falling, full curve, poor fit]

O=C(O)Cn1nnnc1-c1ccc(F)cc1
cell number change: -14.1%
AC50 [1]: 29.1 µM [falling, partial curve]

O=C(O)CN1C(=O)/C(=C\c2ccccc2OCc2ccc(F)cc2)SC1=S
cell number change: -21.1%

Cc1cc2nc(SCCOC(=O)Nc3cccc(Cl)c3)nc(C)c2cc1C
cell number change: 10.9%
AC50 [1]: 1.46 µM [falling, single point]

Cc1cc(C)n2nc(SCC(=O)NC3CCCCC3)nc2n1
cell number change: 34%
AC50 [2]: 32.6 µM [rising, single point]

Cc1nn(Cc2c(Cl)cccc2Cl)c(Cl)c1/C=N/NC(=O)c1cccnc1
cell number change: 16.7%

COc1ccc(-c2nc(NC3=NCCCCC3)sc2C)cc1
AC50 [2]: 6.51 µM [rising, partial curve, poor fit]

O=C1C(Cl)=C(N2CCCCCC2)C(=O)N1c1ccccc1
cell number change: -11.4%
AC50 [1]: 0.731 µM [rising, partial curve]

Cc1cc(Cl)ccc1OCC(=O)NCCC(=O)O
cell number change: -0.279%
AC50 [1]: 32.6 µM [falling, single point]

O=Cc1ccccc1Oc1nc(N2CCOCC2)nc(N2CCOCC2)n1
cell number change: 55.5%
AC50 [2]: 4.11 µM [rising, full curve, poor fit]

CN(Cc1cccs1)C(=O)COc1cccc(-n2cnnn2)c1
cell number change: 4.94%
AC50 [1]: 6.51 µM [rising, single point]

COC(=O)C1=C(C)N(c2ccc(S(N)(=O)=O)cc2)C(=O)C1
cell number change: -0.253%
AC50 [1]: 0.058 µM [falling, full curve, poor fit]

Cn1ccc(C(=O)Nc2ccc3c(c2)OCCO3)n1
cell number change: -9.27%

COc1ccc2[nH]c(C(=O)N3CCNCC3)cc2c1OC
cell number change: -38.9%
AC50 [2]: 8.2 µM [falling, full curve, poor fit]

COc1cc(/C=C/C(=O)OCC(=O)NCCC2=CCCCC2)ccc1O
cell number change: 13.9%

CC(C(=O)NCc1ccccn1)c1ccc([N+](=O)[O-])cc1 (stereo unspecified)
cell number change: -33.6%

C=CCn1nnnc1-c1cc(Cl)cc(Cl)c1
cell number change: 83.8%
AC50 [2]: 18.4 µM [rising, single point]

Cc1cccc(CC2CC(=O)N(c3nc4ccccc4s3)C2=O)c1 (stereo unspecified)
cell number change: 5.73%

C(=N\Nc1nc(N2CCOCC2)nc(N2CCOCC2)n1)/c1ccco1
cell number change: -1.24%
AC50 [1]: 32.6 µM [falling, single point]

O=C(/C=C/c1ccccc1)Nc1cc(NC(=O)/C=C/c2ccccc2)cc(C(=O)O)c1
cell number change: -2.96%

O=C(NC1CCCCC1)C12CC3CC(C1)CC(n1cncn1)(C3)C2
cell number change: -5.94%

COc1ccccc1-n1nnnc1SCC(=O)NC1CCCCC1
cell number change: 11.5%
AC50 [1]: 0.116 µM [falling, single point]

COc1ccc(CNC(=O)CN2C(=O)c3ccc([N+](=O)[O-])cc3C2=O)cc1
cell number change: 50%

N/C(=N\c1nc(CSc2nc3ccccc3s2)cc(=O)[nH]1)Nc1ccc(F)cc1
cell number change: 9.55%
AC50 [1]: 0.517 µM [rising, full curve, poor fit]

FC(F)(F)c1nc2ccccc2nc1N/N=C/c1c(Cl)cccc1Cl
cell number change: -62.3%
AC50 [2]: 4.11 µM [falling, full curve, poor fit]

Cc1nnc(SCc2nnc(-c3cccs3)o2)n1Cc1ccccc1
cell number change: 46.7%
AC50 [2]: 29.1 µM [rising, single point]
AC50 [1]: 0.411 µM [rising, single point]

COc1ccc(NCc2nnc(SCC(=O)NNC(=O)c3ccc(C)cc3)n2C)cc1
cell number change: -34%
AC50 [2]: 5.17 µM [falling, full curve]
AC50 [1]: 6.51 µM [falling, single point]

CSc1nc2ccc(NC(=O)c3c(F)cccc3F)cc2s1
cell number change: 89.5%

CCNC(=O)NC(=O)CSc1ccc(S(=O)(=O)N2CCCCC2)cn1
cell number change: 40.9%
AC50 [2]: 29.1 µM [rising, single point]
AC50 [1]: 0.651 µM [falling, single point]

CC1CN(S(=O)(=O)c2ccccc2)CN1C(=O)N1CCOCC1 (stereo unspecified)
cell number change: 12.2%

COc1ccccc1/C=C1\SC(=S)N(CCC(=O)NC2=NCCS2)C1=O
cell number change: 41.4%
AC50 [2]: 0.206 µM [rising, partial curve, poor fit]
AC50 [1]: 1.64 µM [rising, partial curve]

Cc1ccc(NC(=O)c2cc(S(=O)(=O)N3CCOCC3)cn2C)cc1Cl
cell number change: -4.32%
AC50 [1]: 29.1 µM [falling, single point]

Cc1cc(O)ccc1C1(c2ccc(O)cc2C)OC(=O)c2ccccc21
cell number change: -39.2%
AC50 [2]: 29.1 µM [falling, single point]
AC50 [1]: 29.1 µM [falling, single point]
